Experimental data as given in doi:10.1101/2022.12.23.521717.

Chains of the proteins cited; added tags and fusions are not shown. Lines headed by an entry give the natural chain unless they say otherwise; changes in a name come on top.
UniProt Q6ZWH5: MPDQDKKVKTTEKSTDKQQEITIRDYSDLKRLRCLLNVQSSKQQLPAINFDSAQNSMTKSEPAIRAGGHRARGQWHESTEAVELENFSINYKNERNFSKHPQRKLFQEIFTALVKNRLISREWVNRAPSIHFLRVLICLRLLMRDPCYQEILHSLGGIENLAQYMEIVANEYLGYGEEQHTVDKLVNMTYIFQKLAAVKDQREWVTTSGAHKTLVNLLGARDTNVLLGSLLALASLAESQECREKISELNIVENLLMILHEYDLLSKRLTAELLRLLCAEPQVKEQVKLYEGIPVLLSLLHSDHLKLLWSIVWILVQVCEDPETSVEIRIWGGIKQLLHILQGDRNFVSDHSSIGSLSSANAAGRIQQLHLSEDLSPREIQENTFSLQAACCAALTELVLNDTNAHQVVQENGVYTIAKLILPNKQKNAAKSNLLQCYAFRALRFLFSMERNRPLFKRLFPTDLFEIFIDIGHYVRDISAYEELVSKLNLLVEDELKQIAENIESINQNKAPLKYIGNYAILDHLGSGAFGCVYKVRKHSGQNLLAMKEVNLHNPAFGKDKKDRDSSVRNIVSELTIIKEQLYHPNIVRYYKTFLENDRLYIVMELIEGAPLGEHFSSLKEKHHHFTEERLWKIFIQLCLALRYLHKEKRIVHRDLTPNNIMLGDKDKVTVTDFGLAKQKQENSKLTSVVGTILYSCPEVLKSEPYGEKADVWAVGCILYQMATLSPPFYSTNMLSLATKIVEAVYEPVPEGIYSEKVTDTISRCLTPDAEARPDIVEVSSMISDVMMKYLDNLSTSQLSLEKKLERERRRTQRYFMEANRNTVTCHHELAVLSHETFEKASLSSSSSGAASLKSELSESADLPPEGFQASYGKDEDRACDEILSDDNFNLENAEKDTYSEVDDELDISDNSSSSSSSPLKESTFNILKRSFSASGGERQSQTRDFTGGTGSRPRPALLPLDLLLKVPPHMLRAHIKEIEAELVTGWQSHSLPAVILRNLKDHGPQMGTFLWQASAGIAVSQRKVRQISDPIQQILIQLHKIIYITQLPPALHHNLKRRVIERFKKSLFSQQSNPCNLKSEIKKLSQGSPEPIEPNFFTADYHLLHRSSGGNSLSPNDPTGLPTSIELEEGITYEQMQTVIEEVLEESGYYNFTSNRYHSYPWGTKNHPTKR
UniProt P35222: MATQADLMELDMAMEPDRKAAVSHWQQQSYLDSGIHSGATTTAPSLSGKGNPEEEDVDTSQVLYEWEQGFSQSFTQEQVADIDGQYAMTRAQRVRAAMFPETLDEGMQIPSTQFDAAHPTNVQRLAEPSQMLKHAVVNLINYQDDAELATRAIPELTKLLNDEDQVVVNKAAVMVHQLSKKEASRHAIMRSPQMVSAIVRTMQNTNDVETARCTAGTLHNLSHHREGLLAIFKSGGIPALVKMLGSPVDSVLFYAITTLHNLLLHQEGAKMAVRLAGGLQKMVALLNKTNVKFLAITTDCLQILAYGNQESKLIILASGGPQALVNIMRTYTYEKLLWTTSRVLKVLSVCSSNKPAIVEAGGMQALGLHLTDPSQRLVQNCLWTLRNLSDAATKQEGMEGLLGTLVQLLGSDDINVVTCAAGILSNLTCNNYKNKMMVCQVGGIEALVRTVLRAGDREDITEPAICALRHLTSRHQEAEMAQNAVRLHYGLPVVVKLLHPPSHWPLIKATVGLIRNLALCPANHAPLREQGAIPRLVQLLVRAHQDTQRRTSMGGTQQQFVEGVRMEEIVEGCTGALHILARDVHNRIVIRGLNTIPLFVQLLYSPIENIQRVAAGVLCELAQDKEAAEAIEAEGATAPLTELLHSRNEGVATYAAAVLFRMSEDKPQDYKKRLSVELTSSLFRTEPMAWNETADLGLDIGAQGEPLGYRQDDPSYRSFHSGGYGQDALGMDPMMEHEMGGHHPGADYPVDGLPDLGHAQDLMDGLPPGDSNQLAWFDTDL
UniProt O15169: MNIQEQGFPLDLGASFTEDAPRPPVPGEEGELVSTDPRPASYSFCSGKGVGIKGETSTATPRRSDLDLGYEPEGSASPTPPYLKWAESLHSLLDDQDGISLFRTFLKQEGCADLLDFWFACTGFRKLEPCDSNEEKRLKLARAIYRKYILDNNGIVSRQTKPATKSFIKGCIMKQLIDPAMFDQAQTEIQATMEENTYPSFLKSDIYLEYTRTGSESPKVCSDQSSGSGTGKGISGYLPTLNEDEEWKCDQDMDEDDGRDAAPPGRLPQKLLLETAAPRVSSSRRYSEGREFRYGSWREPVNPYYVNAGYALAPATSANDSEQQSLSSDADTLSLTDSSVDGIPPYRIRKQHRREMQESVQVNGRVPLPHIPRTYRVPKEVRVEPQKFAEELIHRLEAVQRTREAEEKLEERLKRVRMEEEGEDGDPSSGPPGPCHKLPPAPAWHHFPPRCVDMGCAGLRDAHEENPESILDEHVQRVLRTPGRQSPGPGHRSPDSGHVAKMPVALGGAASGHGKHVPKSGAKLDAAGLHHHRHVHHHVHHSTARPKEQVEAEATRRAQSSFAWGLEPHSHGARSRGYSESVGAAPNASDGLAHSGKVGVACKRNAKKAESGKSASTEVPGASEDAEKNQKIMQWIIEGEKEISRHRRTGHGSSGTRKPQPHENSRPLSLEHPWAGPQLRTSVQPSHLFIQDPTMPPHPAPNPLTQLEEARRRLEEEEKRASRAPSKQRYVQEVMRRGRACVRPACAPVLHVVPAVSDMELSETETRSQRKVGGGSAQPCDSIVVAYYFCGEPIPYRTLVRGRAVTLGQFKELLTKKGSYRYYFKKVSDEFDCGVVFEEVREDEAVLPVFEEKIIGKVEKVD

Target: Flag-tagged kinase-dead Nek10 (human) (UniProt Q6ZWH5)
Assay: co-IP

Row | Substance | binding
1 | N-terminal HA-tagged wild-type β-catenin (from UniProt P35222 1-781) | no binding
2 | Myc-tagged Axin (from UniProt O15169 1-862) | binds weakly

These are yes or no findings as the source states them, for the method shown. Binding seen in cells or lysates may run through a third protein. Binding can be weak; no strength is given.
